# Laboratory results from PMC11559003.
# Sequences of proteins named here, by UniProt entry; tags and fusion partners are left off. A change or cut given only in a name is not applied to a line headed by its entry.
# UniProt P0ACJ8: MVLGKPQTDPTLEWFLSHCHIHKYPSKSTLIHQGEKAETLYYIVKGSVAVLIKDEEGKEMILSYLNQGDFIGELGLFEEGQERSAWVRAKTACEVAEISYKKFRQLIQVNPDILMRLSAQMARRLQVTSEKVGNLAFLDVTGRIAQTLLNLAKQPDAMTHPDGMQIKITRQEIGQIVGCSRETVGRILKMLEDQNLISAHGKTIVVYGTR
# For part of these data: The exact form of at least one protein or probe is not confirmed.
# Assays:
# [1] = target: CRP (cAMP receptor protein) (Escherichia coli) (UniProt P0ACJ8); assay: EMSA; conditions: 200 uM cAMP; EMSA: 10 nM probe, 1x Beyotime EMSA/Gel-Shift Binding Buffer, 25 C 30 min, 6% PAGE at 4 C in 0.5x TBE + 200 uM cAMP; recombinant protein; residues 1-210; protein details: His-tag (pProEX); label: 5' biotin; probe letters rebuilt from the primers and the genome
# [2] = target: CRP (cAMP receptor protein) (Escherichia coli) (UniProt P0ACJ8); assay: BLI; conditions: BLI: 10 mM HEPES, 2 mM MgCl2, 0.1 mM EDTA, 200 mM KCl, pH 8.0, running buffer + 10 ug/mL BSA, 0.02% Tween-20, temperature not stated, recombinant protein, residues 1-210, protein details: His-tag (pProEX), label: 5' biotin, probe letters rebuilt from the primers and the genome
sequence,measurement,setting,value
AGCCAGTGGCGATAAGTTCCGGCGCTGGTGGAAAAAGGCCAGCAGAATGCGCGTCTTAATGGCTTACAGAATGTGACGTTTTATCACGAAAATCTTGAAGAAGATGTCACAAAGCAGCCGTGGGCGAAAAACGGCTTCGATAAAGTGTTGCTGGACCCGGCGCGAGCAGGTGCCGCAGGTGTTATGCAGCAAATTATAAAACTGGAACCTATTCGTATAGTTTATGTATCCTGTAACCCTGCAACGCTGGCTCGGGATAGCGAAGCGTTATTAAAAGCAGGATATACCATTGCGCGACTGGCGATGCTGGATATGTCTTATCGCCACTGGCT (double strand) [relA promoter probe],binding result,[1],binds
same,Kd,[2]; cAMP + (p)ppGpp,110 µM
same,Kd,"[2]; cAMP, no (p)ppGpp",13 µM
